For the assay, the target named is mu opioid receptor (UniProt P35372). The assay can be described thus: split reporter; PathHunter protein complementation assay in cells expressing recombinant MOP, with or without simultaneous expression of DOP; cells treated with DAMGO or morphine, or without agonist.

Protein sequences, listed by entry. Tags and fused reporters are not part of them.
UniProt P35372: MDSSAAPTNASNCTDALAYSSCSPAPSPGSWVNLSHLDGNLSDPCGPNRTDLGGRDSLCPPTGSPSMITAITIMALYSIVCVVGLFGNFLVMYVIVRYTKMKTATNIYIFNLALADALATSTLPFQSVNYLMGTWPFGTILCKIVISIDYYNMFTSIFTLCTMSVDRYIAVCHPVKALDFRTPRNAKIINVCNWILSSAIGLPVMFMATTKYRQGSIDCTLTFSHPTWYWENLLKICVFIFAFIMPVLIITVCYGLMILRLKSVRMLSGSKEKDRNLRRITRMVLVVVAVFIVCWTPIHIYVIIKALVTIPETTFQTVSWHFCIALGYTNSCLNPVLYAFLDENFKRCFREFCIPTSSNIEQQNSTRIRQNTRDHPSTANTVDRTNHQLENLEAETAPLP
UniProt P32121: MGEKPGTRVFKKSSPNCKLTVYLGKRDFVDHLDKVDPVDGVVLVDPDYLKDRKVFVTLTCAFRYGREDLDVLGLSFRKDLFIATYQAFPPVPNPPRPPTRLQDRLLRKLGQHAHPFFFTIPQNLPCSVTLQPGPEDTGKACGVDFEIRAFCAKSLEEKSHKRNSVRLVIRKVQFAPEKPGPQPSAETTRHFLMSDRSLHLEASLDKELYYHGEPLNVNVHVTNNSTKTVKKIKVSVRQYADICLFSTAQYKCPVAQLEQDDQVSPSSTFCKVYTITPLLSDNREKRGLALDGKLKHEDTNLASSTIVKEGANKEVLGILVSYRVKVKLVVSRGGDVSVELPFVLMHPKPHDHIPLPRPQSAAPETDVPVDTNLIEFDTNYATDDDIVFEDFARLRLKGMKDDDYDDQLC

Results are given in words; binding and its absence hold for the method and conditions named. Binding seen in cells or lysates may run through a third protein. Some entries that bind do so weakly or less than the wild type.

As to β-arrestin2 (from UniProt P32121 1-409), the binding result was “binds”.

(Values after article PMC5577270.)
